No constants are given. Whether binding was seen depends on the method and setting. Binding seen in cells or lysates may run through a third protein. Some results given as binding are weak or reduced against the parent protein; the word gives no strength. For some of these results: Sequences can lack the tags named with a protein. One block for each binder: values may come before it.
Tests used:
AMPKα1-GFP = AMPKα1-GFP (UniProt Q5EG47); experiment: co-IP; reciprocal co-IP from lysates of transfected HEK293T cells over-expressing both proteins; TNE lysis buffer (1% NP40, 150 mM NaCl, 20 mM Tris-base, 1 mM EDTA), Protein G Sepharose 12 hr
[1] = target: AMPKα1, endogenous (mouse), catalytic α1 subunit of adenosine monophosphate-activated protein kinase (mouse (endogenous in primary C57BL/6 MEFs and EL4 cells)) (UniProt Q5EG47); experiment: co-IP; reciprocal co-IP of endogenous proteins from EL4 cell lysate; TNE lysis buffer (1% NP40, 150 mM NaCl, 20 mM Tris-base, 1 mM EDTA), Protein G Sepharose 12 hr
[2] = target: AMPKα1, endogenous (mouse), catalytic α1 subunit of adenosine monophosphate-activated protein kinase (mouse (endogenous in primary C57BL/6 MEFs and EL4 cells)) (UniProt Q5EG47); experiment: proximity ligation; in situ PLA on primary C57BL/6 MEFs, endogenous proteins; goat anti-AMPKα1 (C20) with rabbit anti-ROQUIN, overnight at 4°C; resting cells or 1 mM arsenite for 1 hr; control PLA GFP:AMPKα1

Sequences of proteins named here, by UniProt entry; tags and fusion partners are left off.
UniProt Q5EG47: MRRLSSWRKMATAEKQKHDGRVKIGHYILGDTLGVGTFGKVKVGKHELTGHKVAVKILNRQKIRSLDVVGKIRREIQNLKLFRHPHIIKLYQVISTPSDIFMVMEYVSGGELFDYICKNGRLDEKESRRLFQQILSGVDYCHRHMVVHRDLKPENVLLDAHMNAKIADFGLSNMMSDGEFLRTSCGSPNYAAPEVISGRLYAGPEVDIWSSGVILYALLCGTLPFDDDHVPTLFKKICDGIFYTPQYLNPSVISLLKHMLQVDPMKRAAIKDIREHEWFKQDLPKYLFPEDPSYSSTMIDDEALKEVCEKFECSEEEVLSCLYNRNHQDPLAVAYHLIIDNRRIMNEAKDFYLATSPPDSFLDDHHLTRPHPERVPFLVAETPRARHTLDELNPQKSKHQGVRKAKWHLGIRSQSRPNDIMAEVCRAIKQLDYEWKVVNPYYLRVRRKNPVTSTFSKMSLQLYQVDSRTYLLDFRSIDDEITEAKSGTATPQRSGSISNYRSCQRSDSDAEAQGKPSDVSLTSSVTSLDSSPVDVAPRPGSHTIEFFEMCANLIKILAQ

binding (AMPKα1-GFP): binds
B1: V5-ROQUIN^133-1130 (RING-deleted ROQUIN) (domain or fragment, UniProt Q4VGL6 133-1130)
chain: MQRKLVTLVHCQLVEEEGRIRAMRAARSLGERTVTELILQHQNPQQLSSNLWAAVRARGCQFLGPAMQEEALKLVLLALEDGSALSRKVLVLFVVQRLEPRFPQASKTSIGHVVQLLYRASCFKVTKRDEDSSLMQLKEEFRTYEALRREHDSQIVQIAMEAGLRIAPDQWSSLLYGDQSHKSHMQSIIDKLQTPASFAQSVQELTIALQRTGDPANLNRLRPHLELLANIDPSPDAPPPTWEQLENGLVAVRTVVHGLVDYIQNHSKKGADQQQPPQHSKYKTYMCRDMKQRGGCPRGASCTFAHSQEELEKFRKMNKRLVPRRPLSASLGQLNEVGLPSAPILSDESAVDLSNRKPPALPNGIASSGSTVTQLIPRGTDPSFDSSLKPVKLDHLSSSAPGSPPDLLESAPKSISALPVNPHPVPPRGPTDLPPMPVTKPIQMVPRGSQLYPAQQADVYYQDPRGSAPAFETAPYQQGMYYTPPPCVSRFVRPPPSAPEPGPPYLDHYSPYLQDRVINSQYGTQPQQYPPMYPAHYDGRRVYPAQSYTREEMFRESPIPIDIPSAAVPSYVPESRERYQQVEGYYPVAPHPAQIRPSYPRDPPYSRLPPPQPHPSLDELHRRRKEIMAQLEERKVISPPPFAPSPTLPPAFHPEEFLDEDLKVAGKYKANDYSQYSPWSCDTIGSYIGTKDAKPKDVVAAGSVEMMNVESKGTREQRLDLQRRAVETSDDDLIPFGDRPTVSRFGAISRTSKTLYQGAGPLQAIAPQGAPTKSINISDYSAYGAHGGWGDSPYSPHANIPPQGHFIEREKMSMAEVASHGKPLLSAEREQLRLELQQLNHQISQQTQLRGLEAVSNRLVLQREVNTLASQPQPPQLPPKWPGMISSEQLSLELHQVEREIGKRTRELSMENQCSVDMKSKLGTSKQAENGQPEPQNKIRTEDLTLTFSDVPNGSALTQENLSLLSNKTSSLNLSEDSEGGGDNNDSQRSGVVSNSAP

binding [1]: binds
binding [2]: binds
B2: ROQUIN, endogenous (mouse) (natural protein, UniProt Q4VGL6 1-1130, looked up)
chain: MPVQAPQWTDFLSCPICTQTFDETIRKPISLGCGHTVCKMCLNKLHRKACPFDQTTINTDIELLPVNSALLQLVGAQIPEQQPITLCSGVEDTKHYEEAKKCVEELALYLKPLSSARGVGLNSTTQSVLSRPMQRKLVTLVHCQLVEEEGRIRAMRAARSLGERTVTELILQHQNPQQLSSNLWAAVRARGCQFLGPAMQEEALKLVLLALEDGSALSRKVLVLFVVQRLEPRFPQASKTSIGHVVQLLYRASCFKVTKRDEDSSLMQLKEEFRTYEALRREHDSQIVQIAMEAGLRIAPDQWSSLLYGDQSHKSHMQSIIDKLQTPASFAQSVQELTIALQRTGDPANLNRLRPHLELLANIDPSPDAPPPTWEQLENGLVAVRTVVHGLVDYIQNHSKKGADQQQPPQHSKYKTYMCRDMKQRGGCPRGASCTFAHSQEELEKFRKMNKRLVPRRPLSASLGQLNEVGLPSAPILSDESAVDLSNRKPPALPNGIASSGSTVTQLIPRGTDPSFDSSLKPVKLDHLSSSAPGSPPDLLESAPKSISALPVNPHPVPPRGPTDLPPMPVTKPIQMVPRGSQLYPAQQADVYYQDPRGSAPAFETAPYQQGMYYTPPPCVSRFVRPPPSAPEPGPPYLDHYSPYLQDRVINSQYGTQPQQYPPMYPAHYDGRRVYPAQSYTREEMFRESPIPIDIPSAAVPSYVPESRERYQQVEGYYPVAPHPAQIRPSYPRDPPYSRLPPPQPHPSLDELHRRRKEIMAQLEERKVISPPPFAPSPTLPPAFHPEEFLDEDLKVAGKYKANDYSQYSPWSCDTIGSYIGTKDAKPKDVVAAGSVEMMNVESKGTREQRLDLQRRAVETSDDDLIPFGDRPTVSRFGAISRTSKTLYQGAGPLQAIAPQGAPTKSINISDYSAYGAHGGWGDSPYSPHANIPPQGHFIEREKMSMAEVASHGKPLLSAEREQLRLELQQLNHQISQQTQLRGLEAVSNRLVLQREVNTLASQPQPPQLPPKWPGMISSEQLSLELHQVEREIGKRTRELSMENQCSVDMKSKLGTSKQAENGQPEPQNKIRTEDLTLTFSDVPNGSALTQENLSLLSNKTSSLNLSEDSEGGGDNNDSQRSGVVSNSAP
notes: ROQUIN (ROQUIN1), encoded by Rc3h1, endogenous in mouse cells; also called ROQUIN1; encoded by Rc3h1; source: endogenous, primary C57BL/6 MEFs (in situ); endogenous, EL4 cell lysate

binding (AMPKα1-GFP): binds
B3: V5-ROQUIN, full length (ROQUIN 1-1130) (protein, UniProt Q4VGL6 1-1130)
chain: B2 chain
